This passage reports binding results from US20190111114A1 (BRIGHAM AND WOMEN S HOSPITAL, published 2019).

Amino acid sequences for entries named in this document (tags omitted). A change or cut given only in a name is not applied to a line headed by its entry.
UniProt O95365: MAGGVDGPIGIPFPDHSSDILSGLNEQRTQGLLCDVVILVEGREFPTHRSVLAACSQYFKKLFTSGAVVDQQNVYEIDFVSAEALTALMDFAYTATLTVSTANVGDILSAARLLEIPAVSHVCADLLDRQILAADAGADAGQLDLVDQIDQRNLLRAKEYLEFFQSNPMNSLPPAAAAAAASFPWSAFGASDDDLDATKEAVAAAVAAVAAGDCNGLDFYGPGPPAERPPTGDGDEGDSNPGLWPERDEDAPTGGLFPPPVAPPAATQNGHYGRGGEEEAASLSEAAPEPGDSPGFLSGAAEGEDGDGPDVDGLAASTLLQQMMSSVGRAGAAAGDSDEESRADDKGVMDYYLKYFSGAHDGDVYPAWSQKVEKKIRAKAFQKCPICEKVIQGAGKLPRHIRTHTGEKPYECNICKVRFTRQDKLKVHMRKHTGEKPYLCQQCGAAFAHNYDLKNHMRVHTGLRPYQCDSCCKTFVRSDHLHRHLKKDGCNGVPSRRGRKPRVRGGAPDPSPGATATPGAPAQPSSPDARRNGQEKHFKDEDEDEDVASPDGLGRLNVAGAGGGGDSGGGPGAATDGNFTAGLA
UniProt Q8WXI9: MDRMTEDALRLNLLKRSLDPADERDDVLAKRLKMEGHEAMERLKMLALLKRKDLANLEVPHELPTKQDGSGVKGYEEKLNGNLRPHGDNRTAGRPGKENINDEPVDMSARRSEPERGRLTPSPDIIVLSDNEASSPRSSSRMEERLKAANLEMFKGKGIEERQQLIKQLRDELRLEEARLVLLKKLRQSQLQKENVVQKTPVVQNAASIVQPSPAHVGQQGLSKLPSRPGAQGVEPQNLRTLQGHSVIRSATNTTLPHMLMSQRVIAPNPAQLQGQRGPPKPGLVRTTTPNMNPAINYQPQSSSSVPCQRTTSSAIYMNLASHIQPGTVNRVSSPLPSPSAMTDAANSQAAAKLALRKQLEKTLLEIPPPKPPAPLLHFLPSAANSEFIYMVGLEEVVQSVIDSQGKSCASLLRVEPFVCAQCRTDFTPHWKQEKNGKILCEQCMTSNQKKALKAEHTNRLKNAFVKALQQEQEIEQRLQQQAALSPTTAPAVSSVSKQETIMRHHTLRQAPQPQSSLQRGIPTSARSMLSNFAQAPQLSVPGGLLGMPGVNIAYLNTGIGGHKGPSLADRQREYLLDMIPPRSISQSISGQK
UniProt Q9NRL2: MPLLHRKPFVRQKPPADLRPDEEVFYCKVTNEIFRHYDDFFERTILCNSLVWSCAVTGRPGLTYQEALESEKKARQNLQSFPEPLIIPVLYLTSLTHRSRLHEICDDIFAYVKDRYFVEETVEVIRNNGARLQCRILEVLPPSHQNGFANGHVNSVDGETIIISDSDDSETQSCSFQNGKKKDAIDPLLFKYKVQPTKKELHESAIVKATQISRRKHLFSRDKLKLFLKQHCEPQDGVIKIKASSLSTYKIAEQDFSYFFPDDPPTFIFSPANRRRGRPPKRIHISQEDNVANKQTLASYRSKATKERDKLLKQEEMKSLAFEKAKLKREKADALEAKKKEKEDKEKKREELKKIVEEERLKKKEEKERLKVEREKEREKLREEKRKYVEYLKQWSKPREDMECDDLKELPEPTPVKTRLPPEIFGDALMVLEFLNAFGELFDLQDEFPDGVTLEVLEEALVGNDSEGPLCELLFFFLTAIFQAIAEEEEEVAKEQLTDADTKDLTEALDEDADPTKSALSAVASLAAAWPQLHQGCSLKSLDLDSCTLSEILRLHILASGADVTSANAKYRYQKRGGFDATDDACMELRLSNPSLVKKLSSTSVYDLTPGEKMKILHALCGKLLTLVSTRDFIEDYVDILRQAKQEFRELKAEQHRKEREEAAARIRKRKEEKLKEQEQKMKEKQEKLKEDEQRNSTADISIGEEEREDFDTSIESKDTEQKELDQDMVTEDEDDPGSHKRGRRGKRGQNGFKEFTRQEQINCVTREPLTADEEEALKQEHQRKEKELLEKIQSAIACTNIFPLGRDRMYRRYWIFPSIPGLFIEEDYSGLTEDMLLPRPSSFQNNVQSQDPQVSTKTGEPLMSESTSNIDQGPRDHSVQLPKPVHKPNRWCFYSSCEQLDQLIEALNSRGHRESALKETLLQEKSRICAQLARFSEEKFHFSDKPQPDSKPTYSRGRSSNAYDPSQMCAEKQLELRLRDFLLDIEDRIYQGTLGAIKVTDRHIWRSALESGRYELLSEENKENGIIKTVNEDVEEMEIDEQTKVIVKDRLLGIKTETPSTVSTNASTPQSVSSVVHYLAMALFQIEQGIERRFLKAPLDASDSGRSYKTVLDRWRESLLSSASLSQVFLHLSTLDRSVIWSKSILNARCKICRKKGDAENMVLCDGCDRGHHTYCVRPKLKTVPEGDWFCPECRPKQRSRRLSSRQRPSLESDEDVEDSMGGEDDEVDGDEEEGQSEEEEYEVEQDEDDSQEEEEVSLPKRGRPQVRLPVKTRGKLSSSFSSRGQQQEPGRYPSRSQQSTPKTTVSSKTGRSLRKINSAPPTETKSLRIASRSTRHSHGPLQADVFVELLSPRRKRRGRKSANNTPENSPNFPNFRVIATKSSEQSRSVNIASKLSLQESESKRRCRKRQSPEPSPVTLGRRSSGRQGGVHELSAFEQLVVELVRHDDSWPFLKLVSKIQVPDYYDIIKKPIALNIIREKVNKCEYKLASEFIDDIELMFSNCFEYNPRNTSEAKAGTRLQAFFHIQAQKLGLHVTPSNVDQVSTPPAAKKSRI
UniProt Q12873: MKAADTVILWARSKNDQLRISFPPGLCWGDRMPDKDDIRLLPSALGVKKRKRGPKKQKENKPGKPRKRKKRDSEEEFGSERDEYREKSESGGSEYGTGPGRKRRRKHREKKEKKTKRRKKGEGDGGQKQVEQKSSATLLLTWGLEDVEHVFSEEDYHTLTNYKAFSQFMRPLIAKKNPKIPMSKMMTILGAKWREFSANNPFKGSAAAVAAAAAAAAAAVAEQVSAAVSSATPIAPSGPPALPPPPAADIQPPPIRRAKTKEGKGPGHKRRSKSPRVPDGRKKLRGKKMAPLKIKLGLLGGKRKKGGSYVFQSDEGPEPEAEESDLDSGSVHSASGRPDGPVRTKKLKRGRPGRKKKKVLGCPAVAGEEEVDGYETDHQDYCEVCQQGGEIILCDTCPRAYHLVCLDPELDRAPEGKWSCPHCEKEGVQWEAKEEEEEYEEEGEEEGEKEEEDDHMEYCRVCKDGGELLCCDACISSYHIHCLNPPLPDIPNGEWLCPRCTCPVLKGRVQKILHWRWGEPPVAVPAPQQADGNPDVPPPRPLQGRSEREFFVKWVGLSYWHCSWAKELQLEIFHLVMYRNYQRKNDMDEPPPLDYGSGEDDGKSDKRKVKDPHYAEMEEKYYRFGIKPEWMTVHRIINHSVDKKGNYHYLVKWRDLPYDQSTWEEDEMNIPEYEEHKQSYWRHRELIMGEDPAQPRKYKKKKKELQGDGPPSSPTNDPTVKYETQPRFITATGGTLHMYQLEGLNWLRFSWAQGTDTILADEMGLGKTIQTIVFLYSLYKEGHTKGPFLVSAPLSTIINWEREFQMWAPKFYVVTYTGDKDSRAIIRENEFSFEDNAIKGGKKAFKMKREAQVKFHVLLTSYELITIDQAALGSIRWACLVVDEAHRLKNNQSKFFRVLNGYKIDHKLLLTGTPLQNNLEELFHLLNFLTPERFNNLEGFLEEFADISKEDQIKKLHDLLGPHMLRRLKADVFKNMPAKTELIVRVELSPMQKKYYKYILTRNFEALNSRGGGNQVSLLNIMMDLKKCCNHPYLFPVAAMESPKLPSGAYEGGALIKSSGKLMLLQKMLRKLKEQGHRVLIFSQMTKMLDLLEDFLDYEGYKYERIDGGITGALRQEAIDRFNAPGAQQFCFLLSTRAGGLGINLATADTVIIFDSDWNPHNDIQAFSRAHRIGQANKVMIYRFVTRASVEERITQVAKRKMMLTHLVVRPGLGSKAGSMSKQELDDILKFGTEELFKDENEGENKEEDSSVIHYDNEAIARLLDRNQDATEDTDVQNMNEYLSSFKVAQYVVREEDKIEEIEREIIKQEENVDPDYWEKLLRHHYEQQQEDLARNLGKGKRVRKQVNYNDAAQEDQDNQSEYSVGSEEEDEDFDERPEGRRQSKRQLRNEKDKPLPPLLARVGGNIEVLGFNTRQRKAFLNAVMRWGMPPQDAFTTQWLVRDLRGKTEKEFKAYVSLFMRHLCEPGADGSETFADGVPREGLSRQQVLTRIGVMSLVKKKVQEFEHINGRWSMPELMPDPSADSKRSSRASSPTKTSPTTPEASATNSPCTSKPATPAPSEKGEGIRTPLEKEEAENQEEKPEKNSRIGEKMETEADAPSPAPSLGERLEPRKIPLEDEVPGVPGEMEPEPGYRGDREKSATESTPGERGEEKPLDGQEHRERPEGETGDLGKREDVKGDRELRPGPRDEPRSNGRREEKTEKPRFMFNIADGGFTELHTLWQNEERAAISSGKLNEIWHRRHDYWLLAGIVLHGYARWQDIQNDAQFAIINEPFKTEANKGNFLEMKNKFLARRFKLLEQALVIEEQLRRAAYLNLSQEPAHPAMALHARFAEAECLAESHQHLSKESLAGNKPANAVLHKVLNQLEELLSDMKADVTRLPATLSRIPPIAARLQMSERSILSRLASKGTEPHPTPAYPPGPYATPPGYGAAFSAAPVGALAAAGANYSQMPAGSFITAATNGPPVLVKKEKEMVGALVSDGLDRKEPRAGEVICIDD

These are yes or no findings as the source states them, for the method shown. Binding seen in cells or lysates may run through a third protein. Some binding calls cover weakened binding; strength is not graded here.

The target of experiment [1] is human LRF/ZBTB7A, endogenous (293T cells; HSPC-derived erythroblasts) (human) (UniProt O95365). The experiment is described as follows: co-immunoprecipitation with anti-Flag antibody from 293T lysate, Western blot with anti-LRF antibody.
The target is the same in experiment [2]. As to the kind of experiment: co-immunoprecipitation (FIG. 17B).
The target is the same in experiment [3]. As to the kind of experiment: reciprocal co-immunoprecipitation with anti-GATAD2B antibody, human erythroid cell lysate.
Experiment [4] deals with GATAD2B, endogenous, in human HSPC-derived erythroblasts (human) (UniProt Q8WXI9). As to the kind of experiment: co-immunoprecipitation with anti-LRF antibody, human proerythroblast lysate.
For experiment [5] the target is unchanged. As to the kind of experiment: co-immunoprecipitation with anti-LRF antibody, HSPC-derived erythroblasts.

For the substance “Flag-tagged BAZ1A (pcDNA3.1-hACF1-Flag), expressed in 293T cells (from UniProt Q9NRL2 1-1556)”, the binding entry in experiment [1] is “binds”. As to “Flag-tagged human CHD3 (pCI-neo3-Flag-hCHD3), expressed in 293T cells (from UniProt Q12873 1-2000)”, the binding result in experiment [1] and in experiment [2] was “binds” in each case.

For “GATAD2B, endogenous, in human HSPC-derived erythroblasts (from UniProt Q8WXI9 1-593)”, the binding entry in experiment [3] is given as “binds”. As for “Flag-tagged human GATAD2B/p66beta (pCMV-Tag2B-Flag-p66beta), expressed in 293T cells (from UniProt Q8WXI9 1-593)”, the binding entry in experiment [1] and in experiment [2] was “binds” throughout. Consider “human LRF/ZBTB7A, endogenous (293T cells; HSPC-derived erythroblasts) (from UniProt O95365 1-584)”, for which the binding entry in experiment [4] and in experiment [5] was “binds” throughout.
